Test results reported in patent US7341991B2, “Inhibitors of amyloid precursor protein processing” (Posco, priority 2004, dated 2008).
Some results were stated once for a whole list of compounds, not compound by compound.

By UniProt entry, the sequences of proteins in these tests, tags left out. Where a name states a change or a piece, a line headed by the entry shows the natural chain unless it says otherwise.
UniProt P05067: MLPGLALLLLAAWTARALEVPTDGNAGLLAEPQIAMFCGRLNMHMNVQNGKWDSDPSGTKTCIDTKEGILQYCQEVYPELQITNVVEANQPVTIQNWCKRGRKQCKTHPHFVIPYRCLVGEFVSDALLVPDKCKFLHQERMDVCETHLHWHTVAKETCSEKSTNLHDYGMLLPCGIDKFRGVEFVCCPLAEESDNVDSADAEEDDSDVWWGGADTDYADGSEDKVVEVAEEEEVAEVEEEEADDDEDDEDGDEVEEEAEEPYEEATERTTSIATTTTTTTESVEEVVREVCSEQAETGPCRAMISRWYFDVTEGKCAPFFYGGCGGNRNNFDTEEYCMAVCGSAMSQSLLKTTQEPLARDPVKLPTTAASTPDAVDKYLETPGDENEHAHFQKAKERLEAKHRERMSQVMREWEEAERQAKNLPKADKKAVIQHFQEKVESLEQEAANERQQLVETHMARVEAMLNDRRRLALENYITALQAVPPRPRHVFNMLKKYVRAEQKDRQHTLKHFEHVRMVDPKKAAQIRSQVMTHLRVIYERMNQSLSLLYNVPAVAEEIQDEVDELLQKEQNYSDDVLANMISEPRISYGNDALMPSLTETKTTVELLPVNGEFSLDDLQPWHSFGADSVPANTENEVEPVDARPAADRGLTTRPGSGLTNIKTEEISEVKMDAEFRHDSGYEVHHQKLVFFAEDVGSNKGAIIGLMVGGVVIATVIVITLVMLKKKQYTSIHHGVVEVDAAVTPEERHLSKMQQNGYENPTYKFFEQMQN

Biological target: T1, Substrate W (SEVKMDAEFR, β-secretase cleavage site of wild type APP) (Homo sapiens, UniProt P05067)
T1 construct: purchased Peptron, Inc; host or cells: chemical synthesis
Assay: Binding of biotin-labeled Substrate W to immobilized complementary (HC) peptides
Details: bio-Sub W
Description: Complementary peptides (0.2, 2, 20, and 200 μM) were dissolved in phosphate buffered saline (PBS) (pH 7.4) and fixed to microtiter wells for 5 hr at 37° C. The wells were blocked with blocking buffer (3% BSA/PBS) for 1 hr at 37° C. Either N-terminally biotinylated Substrate W or M (20 μM) in blocking buffer was added and incubated for overnight at 4° C. Streptavidin-horseradish peroxidase in blocking buffer was added to detect resulting bound substrates. The plate was incubated for 2 hr at room temperature (RT), followed by addition of 3, 3′, 5,5′-tetramethyl-benzidine (TMB) as substrate for horseradish peroxidase for color reaction. […]
Reacti-Bind™ maleic anhydride-activated polystyrene plate (Pierce, IL, USA) was coated with 50 μl of HC peptide (200 μM in distilled water) by chemical coupling for 3 h at room temperature (RT) and washed three times with phosphate buffered saline (PBS) containing 0.05% tween 20 (PBST). […] The bound biotinylated BACE1 substrates were detected by incubation with streptavidin-horseradish peroxidase (Str-HRP, 125 mU/ml in blocking buffer) for 2 h at RT. […] After stopping the reaction by addition of an equal volume of 1 N HCl, absorbance at 450 nm was read in an automated ELISA reader (EL 312e, Bio-Tek Instruments, VT, USA). […]

Row | Sequence | degree of binding to Sub W compared to c-Sub W
1 | RLHLDLRLKA [Sub M-c] | less than 10%
2 | RLHFYLRLKA [Sub W-c] | less than 10%
